Data as given in paper doi:10.1101/2022.10.10.511565.

Target: T1, Lon^TRAP-Twin-Strep-tag (Lon S674A active-site mutant) (C. crescentus) (UniProt B8GX12)
T1 sequence: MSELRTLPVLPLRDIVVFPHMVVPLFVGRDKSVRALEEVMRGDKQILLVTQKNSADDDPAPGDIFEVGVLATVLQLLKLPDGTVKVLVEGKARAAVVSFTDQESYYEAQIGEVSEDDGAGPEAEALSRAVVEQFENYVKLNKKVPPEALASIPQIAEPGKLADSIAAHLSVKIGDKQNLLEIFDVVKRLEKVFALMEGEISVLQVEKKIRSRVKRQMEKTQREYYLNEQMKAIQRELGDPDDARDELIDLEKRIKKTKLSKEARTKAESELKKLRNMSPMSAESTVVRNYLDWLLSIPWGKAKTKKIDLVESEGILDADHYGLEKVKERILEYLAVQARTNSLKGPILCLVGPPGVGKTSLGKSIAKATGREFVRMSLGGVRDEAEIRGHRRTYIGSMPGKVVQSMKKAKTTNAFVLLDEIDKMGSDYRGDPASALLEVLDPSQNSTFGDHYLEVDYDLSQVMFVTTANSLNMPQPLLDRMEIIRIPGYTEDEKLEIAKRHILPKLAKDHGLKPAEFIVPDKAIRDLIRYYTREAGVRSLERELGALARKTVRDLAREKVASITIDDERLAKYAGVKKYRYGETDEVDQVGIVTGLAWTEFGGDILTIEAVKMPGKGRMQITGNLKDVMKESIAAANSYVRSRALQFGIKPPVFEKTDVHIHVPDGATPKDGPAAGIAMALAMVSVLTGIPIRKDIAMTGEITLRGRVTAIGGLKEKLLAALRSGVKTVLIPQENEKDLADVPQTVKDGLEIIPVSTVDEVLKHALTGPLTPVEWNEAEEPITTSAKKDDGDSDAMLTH
Experiment: affinity purification with mass spectrometry

Question: For DnaA, which binding is on record?
Answer: The binding was “binds”.

Question: StaR was tested. Which binding did it give?
Answer: The binding was “binds”.

Question: With FliK as the substance, how does the binding read?
Answer: Its binding is “binds”.

Question: How did the binding turn out when “LarA (Lon activity regulator A, CCNA_03707)” was run?
Answer: The binding was “binds”.

Question: For FliX, which binding is on record?
Answer: The binding was “binds”.

No constants are given. Whether binding was seen depends on the method and setting. In cells and extracts the contact can be indirect. A yes stands for co-enrichment or nearness to the bait. Other partners may have been found. Tags and fused reporters may be left off the sequences shown.
